The other results are listed elsewhere or left out.
Compound: Cc1cc(ccc1-c1ccccc1)C(=O)N1CCCN(CC1)C(=O)CCl [compound 10]
Experiment: probe-labelled cysteine peptide fold change vs DMSO (competition) (log2 fold change); higher = less target engagement (more negative = stronger competition)
Conditions: THP-1, incubation time: 4 h
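Note: competitive profiling in live THP-1 cells: cysteine peptides tagged with an iodoacetamide desthiobiotin (IA-DTB) probe, intensity after compound treatment relative to DMSO-treated cells.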

Protein sequences, listed by entry. Tags and fused reporters are not part of them. Lines headed by an entry give the natural chain unless they say otherwise; changes in a name come on top.
UniProt P51452: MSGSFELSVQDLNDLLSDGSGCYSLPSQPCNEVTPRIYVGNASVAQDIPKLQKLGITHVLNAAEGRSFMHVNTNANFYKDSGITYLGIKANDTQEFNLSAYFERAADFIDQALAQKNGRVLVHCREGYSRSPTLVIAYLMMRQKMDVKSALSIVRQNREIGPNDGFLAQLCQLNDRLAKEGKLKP
UniProt Q5JSL3: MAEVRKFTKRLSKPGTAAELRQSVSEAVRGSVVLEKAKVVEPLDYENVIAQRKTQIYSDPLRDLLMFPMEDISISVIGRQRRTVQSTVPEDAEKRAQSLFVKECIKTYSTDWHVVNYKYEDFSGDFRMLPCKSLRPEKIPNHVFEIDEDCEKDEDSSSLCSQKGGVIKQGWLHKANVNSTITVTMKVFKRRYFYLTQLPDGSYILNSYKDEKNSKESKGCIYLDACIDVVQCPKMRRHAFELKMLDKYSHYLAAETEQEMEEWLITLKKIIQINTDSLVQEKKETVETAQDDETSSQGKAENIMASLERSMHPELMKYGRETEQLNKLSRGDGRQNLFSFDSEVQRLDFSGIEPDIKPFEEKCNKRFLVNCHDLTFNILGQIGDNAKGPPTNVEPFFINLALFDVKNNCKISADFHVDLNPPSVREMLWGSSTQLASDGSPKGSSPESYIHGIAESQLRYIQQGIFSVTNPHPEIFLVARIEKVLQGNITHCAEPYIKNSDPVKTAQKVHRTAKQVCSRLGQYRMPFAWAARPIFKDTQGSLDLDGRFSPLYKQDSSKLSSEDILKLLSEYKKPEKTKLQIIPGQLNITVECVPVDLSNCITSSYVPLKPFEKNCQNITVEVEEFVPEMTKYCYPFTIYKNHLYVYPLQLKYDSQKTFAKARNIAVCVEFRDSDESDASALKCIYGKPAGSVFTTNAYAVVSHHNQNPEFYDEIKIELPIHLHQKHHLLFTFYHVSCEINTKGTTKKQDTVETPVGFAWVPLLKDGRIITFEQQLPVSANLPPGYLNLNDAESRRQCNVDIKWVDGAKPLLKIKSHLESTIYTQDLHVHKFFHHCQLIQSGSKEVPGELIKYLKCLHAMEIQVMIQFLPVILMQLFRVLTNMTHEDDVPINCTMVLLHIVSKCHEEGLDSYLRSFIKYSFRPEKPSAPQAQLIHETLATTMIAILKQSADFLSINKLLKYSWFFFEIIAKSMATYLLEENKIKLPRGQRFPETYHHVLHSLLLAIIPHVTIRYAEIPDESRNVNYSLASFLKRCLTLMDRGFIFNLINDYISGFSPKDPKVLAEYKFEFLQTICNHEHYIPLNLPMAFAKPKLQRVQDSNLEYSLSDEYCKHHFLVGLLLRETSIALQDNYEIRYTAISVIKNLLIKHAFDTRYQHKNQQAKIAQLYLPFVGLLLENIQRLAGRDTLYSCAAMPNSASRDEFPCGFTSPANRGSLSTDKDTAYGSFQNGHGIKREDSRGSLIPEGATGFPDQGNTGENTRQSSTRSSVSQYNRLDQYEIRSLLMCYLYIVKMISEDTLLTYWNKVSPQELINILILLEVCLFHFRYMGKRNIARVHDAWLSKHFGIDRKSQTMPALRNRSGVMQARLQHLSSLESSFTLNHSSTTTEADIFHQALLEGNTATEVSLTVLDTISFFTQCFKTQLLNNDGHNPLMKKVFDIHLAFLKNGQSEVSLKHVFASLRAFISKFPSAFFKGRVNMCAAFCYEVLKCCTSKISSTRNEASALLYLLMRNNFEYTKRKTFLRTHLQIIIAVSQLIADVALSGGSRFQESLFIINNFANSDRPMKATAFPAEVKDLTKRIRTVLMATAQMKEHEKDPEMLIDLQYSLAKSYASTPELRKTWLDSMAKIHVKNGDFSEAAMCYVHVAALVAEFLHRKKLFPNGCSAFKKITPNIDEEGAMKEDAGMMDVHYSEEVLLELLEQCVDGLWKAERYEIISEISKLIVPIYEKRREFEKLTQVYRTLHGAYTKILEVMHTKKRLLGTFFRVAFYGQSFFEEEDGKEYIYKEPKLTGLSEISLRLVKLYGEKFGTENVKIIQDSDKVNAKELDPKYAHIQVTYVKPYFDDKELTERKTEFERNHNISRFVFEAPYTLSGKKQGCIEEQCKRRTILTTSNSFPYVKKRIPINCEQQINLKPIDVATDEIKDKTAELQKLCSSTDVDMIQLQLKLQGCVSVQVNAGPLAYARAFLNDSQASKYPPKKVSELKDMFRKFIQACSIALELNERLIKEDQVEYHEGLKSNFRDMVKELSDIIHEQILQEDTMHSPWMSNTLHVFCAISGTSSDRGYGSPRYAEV
UniProt Q96G46: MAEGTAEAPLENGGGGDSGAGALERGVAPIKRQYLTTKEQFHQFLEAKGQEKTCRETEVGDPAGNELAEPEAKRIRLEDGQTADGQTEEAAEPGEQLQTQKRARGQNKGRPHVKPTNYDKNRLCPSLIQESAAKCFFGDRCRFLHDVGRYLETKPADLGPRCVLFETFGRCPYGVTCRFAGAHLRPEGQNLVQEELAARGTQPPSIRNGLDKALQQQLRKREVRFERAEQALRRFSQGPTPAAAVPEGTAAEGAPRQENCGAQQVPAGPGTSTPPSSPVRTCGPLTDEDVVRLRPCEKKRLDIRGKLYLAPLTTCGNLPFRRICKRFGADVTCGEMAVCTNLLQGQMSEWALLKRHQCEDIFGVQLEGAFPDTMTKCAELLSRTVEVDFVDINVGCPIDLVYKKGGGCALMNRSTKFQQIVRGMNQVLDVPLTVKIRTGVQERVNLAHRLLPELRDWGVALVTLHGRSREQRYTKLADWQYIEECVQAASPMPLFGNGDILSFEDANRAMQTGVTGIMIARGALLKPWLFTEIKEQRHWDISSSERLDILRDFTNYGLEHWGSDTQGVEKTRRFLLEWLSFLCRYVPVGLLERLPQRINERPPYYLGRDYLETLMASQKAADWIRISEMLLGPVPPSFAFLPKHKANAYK
UniProt P60981: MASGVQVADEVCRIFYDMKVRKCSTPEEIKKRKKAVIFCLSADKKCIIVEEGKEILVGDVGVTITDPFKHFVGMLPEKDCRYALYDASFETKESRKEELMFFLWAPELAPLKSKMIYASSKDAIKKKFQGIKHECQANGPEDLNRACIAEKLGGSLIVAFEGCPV
UniProt Q9BVM2: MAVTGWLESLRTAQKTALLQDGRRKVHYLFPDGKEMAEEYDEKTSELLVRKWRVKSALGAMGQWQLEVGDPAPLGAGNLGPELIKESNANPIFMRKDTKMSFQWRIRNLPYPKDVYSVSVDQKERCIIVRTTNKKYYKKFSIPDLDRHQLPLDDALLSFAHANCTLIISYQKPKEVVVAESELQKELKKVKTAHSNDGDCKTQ
UniProt Q7L591: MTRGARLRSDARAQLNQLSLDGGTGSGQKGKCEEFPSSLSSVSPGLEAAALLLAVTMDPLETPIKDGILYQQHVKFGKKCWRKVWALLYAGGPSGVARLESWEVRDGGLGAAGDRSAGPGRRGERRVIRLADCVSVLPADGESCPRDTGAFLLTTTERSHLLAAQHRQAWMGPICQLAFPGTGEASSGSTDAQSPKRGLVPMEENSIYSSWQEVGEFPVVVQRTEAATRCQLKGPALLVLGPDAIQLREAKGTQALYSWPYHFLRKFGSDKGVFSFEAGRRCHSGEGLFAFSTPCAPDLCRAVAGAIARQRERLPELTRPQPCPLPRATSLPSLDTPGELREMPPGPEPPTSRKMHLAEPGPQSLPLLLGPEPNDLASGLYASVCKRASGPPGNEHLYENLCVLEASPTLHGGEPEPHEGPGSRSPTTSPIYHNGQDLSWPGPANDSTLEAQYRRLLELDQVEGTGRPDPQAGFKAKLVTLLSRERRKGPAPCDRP
UniProt Q92608: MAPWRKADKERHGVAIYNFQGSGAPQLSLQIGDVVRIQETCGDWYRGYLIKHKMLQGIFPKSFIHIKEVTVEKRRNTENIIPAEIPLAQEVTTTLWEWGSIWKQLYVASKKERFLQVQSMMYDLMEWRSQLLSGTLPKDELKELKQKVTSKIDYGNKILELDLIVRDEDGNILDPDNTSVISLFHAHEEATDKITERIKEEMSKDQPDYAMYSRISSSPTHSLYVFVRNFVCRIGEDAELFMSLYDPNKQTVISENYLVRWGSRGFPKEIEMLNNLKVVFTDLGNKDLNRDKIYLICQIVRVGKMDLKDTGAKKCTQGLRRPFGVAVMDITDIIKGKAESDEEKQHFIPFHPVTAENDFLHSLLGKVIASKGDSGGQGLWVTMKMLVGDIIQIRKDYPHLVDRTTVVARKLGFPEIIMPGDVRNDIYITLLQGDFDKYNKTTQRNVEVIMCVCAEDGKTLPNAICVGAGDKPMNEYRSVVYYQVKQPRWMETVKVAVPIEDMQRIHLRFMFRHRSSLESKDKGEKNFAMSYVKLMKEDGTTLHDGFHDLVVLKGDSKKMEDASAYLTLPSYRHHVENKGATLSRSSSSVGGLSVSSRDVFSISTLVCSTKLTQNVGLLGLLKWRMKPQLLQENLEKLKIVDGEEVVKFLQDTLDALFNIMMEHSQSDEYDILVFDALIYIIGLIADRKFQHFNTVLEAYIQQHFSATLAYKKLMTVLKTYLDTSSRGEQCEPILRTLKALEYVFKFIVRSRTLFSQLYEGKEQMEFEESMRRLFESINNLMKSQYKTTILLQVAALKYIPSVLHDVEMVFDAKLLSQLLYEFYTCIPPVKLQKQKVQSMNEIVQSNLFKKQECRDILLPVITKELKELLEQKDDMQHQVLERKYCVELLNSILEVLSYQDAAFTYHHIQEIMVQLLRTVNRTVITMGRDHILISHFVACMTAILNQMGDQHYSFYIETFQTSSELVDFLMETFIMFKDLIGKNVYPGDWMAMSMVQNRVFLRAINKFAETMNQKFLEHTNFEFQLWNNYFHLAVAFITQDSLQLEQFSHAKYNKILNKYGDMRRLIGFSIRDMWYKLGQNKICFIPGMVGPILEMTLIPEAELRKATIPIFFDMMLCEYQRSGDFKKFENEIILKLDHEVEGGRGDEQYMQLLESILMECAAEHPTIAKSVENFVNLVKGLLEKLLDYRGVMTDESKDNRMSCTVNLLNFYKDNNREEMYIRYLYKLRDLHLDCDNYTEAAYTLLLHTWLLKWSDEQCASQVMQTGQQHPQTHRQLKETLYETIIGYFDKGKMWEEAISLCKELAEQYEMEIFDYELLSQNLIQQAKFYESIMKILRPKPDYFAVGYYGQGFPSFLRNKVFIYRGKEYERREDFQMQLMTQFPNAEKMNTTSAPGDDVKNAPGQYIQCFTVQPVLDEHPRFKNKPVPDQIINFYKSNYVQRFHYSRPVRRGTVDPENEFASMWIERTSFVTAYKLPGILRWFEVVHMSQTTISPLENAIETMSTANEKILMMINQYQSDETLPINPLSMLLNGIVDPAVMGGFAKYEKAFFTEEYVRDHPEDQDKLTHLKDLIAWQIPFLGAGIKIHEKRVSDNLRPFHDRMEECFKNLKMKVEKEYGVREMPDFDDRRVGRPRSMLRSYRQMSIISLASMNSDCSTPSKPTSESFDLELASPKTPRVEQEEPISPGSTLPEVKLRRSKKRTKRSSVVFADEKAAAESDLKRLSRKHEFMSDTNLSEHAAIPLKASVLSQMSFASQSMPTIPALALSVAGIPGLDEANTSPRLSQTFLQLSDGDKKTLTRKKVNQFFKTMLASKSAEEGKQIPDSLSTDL
UniProt Q86TI2: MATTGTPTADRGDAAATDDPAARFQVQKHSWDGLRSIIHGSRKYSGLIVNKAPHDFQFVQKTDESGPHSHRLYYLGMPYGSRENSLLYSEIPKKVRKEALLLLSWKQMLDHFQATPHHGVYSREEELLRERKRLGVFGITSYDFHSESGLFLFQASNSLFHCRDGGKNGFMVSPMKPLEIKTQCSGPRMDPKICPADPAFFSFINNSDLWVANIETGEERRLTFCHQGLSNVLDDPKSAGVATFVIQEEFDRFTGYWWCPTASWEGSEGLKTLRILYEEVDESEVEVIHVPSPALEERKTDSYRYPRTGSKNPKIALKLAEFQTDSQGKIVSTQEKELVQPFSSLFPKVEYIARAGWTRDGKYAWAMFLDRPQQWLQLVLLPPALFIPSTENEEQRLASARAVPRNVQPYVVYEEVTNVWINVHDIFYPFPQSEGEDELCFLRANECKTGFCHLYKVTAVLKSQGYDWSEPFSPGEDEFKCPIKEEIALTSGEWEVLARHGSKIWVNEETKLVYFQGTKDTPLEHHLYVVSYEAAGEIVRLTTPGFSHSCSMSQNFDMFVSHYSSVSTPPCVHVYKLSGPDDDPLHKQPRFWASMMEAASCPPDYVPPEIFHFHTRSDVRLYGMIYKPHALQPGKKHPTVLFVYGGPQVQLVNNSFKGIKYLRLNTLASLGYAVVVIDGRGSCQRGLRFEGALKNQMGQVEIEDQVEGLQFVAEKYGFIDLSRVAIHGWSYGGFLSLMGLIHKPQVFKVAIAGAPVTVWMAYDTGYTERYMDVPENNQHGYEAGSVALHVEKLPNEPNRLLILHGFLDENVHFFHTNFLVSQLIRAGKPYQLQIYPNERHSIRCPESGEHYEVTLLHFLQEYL

Target	probe-labelled cysteine peptide fold change (10 µM)	probe-labelled cysteine peptide fold change (50 µM)
DSCR3_O14972_219+221_VETCGCAEGYAR (UniProt O14972)	-0.345	-2.51
EARS2_Q5JPH6_411_QGHICR (UniProt Q5JPH6)	0.0877	-0.168
DTX3L_Q8TDB6_175_VCGDFQDIER (UniProt Q8TDB6)	-0.0317	-0.386
DUSP3_P51452_171_EIGPNDGFLAQLCQLNDR (UniProt P51452)	-0.157	0.139
DOCK11_Q5JSL3_1074_FEFLQTICNHEHYIPLNLPMAFAK (UniProt Q5JSL3)	0.334	0.303
DUS3L_Q96G46_408_GGGCALMNR (UniProt Q96G46)	-0.166	-0.343
DSTN_P60981_39_AVIFCLSADKK (UniProt P60981)	-0.0188	-0.319
DOCK8_Q8NF50_1471_VLVNSLNCDQSTTYLTHCFATLR (UniProt Q8NF50)	0.122	0.137
DPCD_Q9BVM2_164_HQLPLDDALLSFAHANCTLIISYQK (UniProt Q9BVM2)	0.107	0.206
DSTN_P60981_135_HECQANGPEDLNR (UniProt P60981)	0.111	0.231
DUS3L_Q96G46_162_CVLFETFGR (UniProt Q96G46)	-0.023	-0.146
DOCK5_Q9H7D0_316_KHTCGLR (UniProt Q9H7D0)	-0.0526	-0.218
DOK3_Q7L591_323_ERLPELTRPQPCPLPR (UniProt Q7L591)	-0.21	-0.258
E4F1_Q66K89_361_ALAPEPPVSQELPCSSEGSR (UniProt Q66K89)	-0.335	-0.073
DOCK6_Q96HP0_510_IDISPAPENPHFCLSPELLHIK (UniProt Q96HP0)	-0.161	0.192
DOCK10_Q96BY6_2047_KVSELNQLCTMEEVDMIR (UniProt Q96BY6)	-0.19	0.00399
DTX3L_Q8TDB6_309_QECVSLADSK (UniProt Q8TDB6)	0.0786	0.101
ECH1_Q13011_182_PVIAAVHGGCIGGGVDLVTACDIR (UniProt Q13011)	0.0511	0.132
DOCK2_Q92608_607_DVFSISTLVCSTK (UniProt Q92608)	-0.0689	0.0595
DPYSL2_Q16555_179_DRFQLTDCQIYEVLSVIR (UniProt Q16555)	0.25	0.294
DPP9_Q86TI2_225_LTFCHQGLSNVLDDPK (UniProt Q86TI2)	0.0281	0.101
DPH5_Q9H2P9_120_VIHNASIMNAVGCCGLQLYK (UniProt Q9H2P9)	0.0911	0.264
DPP3_Q9NY33_654_ALYEGYATVTDAPPECFLTLR (UniProt Q9NY33)	0.22	0.451

From the supplement of paper PMC12067093, “Discovery and optimisation of a covalent ligand for TRIM25 and its application to targeted protein ubiquitination” (Chemical Science, 2025)
